Some of the results follow.

Protein sequences, listed by entry. Tags and fused reporters are not part of them. Lines headed by an entry give the natural chain unless they say otherwise; changes in a name come on top.
UniProt Q9UBP0: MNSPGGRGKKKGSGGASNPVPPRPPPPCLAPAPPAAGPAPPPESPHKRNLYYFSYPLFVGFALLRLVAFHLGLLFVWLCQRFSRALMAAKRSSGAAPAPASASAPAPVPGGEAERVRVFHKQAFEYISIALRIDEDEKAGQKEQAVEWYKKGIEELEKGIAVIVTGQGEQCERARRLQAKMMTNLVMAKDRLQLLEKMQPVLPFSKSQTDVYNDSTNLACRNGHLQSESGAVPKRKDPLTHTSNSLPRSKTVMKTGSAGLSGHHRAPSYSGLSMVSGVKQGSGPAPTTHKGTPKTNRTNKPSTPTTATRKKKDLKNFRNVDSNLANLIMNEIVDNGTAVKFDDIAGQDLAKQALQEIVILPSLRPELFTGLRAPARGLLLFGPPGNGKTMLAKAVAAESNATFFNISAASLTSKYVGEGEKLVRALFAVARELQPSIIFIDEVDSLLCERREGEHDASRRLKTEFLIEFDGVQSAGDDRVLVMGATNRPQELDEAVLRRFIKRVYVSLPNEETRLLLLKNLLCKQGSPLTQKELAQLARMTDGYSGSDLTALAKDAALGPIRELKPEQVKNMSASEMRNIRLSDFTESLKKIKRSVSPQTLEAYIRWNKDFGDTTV
UniProt O95630, whole entry: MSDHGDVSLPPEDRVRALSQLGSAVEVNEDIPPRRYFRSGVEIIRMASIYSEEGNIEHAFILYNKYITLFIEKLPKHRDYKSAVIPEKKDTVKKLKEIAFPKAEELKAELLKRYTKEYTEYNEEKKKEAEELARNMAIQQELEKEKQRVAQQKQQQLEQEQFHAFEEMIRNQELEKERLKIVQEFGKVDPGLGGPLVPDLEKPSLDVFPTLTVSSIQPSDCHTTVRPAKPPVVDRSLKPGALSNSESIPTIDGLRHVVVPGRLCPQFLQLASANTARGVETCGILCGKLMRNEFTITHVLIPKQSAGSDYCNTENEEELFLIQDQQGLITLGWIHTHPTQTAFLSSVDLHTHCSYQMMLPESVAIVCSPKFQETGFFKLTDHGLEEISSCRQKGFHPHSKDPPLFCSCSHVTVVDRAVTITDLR
UniProt O75940: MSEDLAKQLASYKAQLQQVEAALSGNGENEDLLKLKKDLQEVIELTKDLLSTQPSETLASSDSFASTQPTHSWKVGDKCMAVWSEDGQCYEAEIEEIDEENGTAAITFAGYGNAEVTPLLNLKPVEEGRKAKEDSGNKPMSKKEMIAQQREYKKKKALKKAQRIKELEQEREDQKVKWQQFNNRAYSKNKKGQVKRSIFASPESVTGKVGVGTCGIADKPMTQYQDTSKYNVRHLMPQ
UniProt P00441, whole entry: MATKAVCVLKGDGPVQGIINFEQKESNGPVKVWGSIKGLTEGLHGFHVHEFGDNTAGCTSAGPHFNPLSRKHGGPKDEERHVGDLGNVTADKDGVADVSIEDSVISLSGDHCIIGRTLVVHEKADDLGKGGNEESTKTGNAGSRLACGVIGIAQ
UniProt Q9H7L9: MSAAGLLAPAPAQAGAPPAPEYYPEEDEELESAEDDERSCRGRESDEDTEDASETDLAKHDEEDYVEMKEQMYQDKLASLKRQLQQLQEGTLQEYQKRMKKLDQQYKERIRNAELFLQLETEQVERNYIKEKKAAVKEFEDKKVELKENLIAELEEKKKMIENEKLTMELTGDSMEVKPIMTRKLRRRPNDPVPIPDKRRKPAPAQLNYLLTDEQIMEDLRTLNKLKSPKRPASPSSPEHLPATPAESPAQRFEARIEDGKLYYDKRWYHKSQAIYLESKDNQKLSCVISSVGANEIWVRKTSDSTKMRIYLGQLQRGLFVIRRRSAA
UniProt P05455: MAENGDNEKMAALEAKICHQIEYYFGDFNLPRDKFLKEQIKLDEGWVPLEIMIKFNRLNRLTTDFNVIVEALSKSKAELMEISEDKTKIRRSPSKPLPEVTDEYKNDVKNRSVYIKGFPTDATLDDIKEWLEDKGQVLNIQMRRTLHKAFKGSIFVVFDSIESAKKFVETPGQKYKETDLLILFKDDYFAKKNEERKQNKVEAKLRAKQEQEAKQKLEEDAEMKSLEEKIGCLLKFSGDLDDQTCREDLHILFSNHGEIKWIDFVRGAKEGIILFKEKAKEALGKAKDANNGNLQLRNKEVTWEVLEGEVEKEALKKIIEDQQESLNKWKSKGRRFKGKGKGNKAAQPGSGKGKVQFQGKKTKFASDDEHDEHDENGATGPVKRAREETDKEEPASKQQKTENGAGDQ
UniProt Q7Z614: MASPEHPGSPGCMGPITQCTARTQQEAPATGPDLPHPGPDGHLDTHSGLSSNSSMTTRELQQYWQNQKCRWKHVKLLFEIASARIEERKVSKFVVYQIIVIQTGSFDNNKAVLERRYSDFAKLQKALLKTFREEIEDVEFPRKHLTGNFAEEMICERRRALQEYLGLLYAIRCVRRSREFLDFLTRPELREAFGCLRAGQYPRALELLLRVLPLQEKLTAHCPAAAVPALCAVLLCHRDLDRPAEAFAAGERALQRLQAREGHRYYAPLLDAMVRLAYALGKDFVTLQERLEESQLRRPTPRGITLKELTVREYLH
UniProt Q8N0X7: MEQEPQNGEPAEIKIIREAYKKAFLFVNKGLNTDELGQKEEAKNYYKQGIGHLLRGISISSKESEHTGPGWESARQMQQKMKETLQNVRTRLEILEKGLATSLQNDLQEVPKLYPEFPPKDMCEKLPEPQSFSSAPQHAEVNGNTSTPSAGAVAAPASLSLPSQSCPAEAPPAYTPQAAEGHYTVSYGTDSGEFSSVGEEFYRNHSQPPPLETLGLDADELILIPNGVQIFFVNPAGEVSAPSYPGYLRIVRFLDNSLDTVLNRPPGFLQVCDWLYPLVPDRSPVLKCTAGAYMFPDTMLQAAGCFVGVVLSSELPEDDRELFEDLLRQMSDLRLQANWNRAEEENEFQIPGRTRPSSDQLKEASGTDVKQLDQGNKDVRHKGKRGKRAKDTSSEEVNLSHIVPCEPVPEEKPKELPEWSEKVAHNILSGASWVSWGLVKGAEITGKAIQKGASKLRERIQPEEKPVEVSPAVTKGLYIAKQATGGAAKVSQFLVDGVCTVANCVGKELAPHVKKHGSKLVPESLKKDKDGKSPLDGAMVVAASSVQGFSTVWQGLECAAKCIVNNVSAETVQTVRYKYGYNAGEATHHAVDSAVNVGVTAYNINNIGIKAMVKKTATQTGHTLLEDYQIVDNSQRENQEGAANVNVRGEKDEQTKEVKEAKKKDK
UniProt Q9HBM1: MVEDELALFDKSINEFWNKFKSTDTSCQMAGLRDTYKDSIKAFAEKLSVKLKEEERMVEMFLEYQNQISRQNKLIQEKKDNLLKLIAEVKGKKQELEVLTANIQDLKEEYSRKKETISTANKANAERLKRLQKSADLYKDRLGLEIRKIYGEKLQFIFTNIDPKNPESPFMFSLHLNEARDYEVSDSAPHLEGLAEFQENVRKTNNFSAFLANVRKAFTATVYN
UniProt Q13277: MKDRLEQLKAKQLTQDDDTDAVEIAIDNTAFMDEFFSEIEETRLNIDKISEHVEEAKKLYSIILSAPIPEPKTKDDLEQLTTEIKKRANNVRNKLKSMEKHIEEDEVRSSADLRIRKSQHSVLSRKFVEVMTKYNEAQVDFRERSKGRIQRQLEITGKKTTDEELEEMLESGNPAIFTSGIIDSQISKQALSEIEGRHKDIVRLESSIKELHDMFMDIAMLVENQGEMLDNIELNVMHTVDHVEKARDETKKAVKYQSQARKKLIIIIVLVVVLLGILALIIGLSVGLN
UniProt Q5VWG9, whole entry: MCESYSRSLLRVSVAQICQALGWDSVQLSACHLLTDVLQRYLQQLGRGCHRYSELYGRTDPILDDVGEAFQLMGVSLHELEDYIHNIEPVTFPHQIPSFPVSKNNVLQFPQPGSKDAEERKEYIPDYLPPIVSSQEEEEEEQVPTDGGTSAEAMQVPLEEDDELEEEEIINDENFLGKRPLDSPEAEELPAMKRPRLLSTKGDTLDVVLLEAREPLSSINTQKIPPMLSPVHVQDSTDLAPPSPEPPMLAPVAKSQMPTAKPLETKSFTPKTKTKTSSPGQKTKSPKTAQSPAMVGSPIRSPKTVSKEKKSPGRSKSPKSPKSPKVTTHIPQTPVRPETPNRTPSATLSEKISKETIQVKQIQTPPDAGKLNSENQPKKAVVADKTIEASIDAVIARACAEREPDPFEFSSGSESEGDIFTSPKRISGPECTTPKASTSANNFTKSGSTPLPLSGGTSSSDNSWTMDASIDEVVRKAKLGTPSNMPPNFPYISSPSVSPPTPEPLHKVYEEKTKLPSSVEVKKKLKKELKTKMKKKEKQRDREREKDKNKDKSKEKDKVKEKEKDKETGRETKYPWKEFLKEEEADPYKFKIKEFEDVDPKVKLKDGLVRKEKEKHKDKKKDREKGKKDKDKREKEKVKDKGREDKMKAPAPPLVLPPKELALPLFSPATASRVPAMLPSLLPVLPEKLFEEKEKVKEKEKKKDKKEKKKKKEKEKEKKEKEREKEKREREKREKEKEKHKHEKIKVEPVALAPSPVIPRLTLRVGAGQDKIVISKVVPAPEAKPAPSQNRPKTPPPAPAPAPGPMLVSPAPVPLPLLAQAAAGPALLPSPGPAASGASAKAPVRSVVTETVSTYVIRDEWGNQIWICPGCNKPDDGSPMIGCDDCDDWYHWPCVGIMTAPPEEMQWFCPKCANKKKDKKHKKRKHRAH
UniProt Q8NHG7: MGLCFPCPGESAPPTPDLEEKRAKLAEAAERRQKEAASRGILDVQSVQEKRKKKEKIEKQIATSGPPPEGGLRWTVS
UniProt O15270: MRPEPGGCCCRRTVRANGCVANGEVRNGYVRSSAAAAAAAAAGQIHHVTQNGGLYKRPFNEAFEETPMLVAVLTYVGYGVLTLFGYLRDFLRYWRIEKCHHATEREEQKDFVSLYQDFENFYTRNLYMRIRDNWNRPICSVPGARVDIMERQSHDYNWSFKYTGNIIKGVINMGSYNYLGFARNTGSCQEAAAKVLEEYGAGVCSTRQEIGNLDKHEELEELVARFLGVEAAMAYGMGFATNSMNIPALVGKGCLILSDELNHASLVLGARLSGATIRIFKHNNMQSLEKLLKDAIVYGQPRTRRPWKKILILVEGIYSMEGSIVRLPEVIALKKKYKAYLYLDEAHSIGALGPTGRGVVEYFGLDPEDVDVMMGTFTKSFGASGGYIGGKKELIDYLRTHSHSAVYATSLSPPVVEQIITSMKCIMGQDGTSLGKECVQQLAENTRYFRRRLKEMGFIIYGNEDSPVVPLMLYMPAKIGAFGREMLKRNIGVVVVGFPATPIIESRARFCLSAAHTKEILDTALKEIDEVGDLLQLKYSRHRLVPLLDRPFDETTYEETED
UniProt O60906: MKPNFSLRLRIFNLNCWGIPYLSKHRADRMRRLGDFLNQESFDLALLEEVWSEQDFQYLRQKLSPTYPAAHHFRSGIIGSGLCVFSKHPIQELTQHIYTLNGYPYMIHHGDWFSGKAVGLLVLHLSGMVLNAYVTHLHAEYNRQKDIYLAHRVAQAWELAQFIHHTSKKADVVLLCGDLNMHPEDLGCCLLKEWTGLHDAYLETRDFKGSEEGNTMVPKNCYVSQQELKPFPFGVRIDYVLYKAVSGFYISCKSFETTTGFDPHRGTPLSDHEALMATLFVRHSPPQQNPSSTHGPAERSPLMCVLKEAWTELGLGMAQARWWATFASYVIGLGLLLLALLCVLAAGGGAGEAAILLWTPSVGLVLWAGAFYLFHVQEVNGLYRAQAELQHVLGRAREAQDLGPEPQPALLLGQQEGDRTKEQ
UniProt Q12846: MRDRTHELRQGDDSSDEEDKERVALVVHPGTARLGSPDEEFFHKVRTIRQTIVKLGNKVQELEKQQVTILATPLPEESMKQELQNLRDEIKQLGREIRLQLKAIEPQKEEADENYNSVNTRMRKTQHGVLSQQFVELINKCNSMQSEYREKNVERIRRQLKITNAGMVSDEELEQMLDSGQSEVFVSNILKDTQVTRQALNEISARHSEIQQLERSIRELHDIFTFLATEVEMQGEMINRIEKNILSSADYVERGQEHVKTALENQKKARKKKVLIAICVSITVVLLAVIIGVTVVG
UniProt Q8NBJ7: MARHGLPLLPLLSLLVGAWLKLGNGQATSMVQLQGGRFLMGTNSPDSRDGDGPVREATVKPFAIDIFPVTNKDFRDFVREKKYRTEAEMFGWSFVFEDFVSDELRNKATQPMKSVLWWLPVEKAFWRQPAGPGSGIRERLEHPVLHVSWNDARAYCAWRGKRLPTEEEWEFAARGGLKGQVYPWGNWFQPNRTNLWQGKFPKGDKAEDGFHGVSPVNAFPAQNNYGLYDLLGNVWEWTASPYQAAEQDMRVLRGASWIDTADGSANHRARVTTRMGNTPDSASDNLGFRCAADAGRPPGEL
UniProt Q9UNK0: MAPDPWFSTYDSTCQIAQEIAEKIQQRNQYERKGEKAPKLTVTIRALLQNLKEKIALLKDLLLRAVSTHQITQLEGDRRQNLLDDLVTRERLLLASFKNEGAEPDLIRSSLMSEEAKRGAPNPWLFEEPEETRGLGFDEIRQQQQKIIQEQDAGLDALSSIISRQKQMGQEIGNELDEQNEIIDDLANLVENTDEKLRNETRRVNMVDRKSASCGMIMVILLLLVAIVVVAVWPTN

Compound in this assay: COc1ccc(Cn2ccc3ccc(C(=O)NO)cc32)cc1
In words: dose-dependent thermal stabilisation call (2D-TPP, DLPTP, 10% FDR) (binary (1 = stabilised)); higher = stabilised by the compound. The following applies: system: HL-60 intact cells; concentration range 0.04-10 µM.
In the case of SPEN (UniProt Q96T58), the “dose-dependent thermal stabilisation call” value is inactive: 0. For SPAST (UniProt Q9UBP0), the “dose-dependent thermal stabilisation call” value is inactive: 0. On to STAMBP (UniProt O95630), for which the “dose-dependent thermal stabilisation call” value was inactive: 0.

For SYK (UniProt P43405), the “dose-dependent thermal stabilisation call” value is inactive: 0. As to SMNDC1 (UniProt O75940), the “dose-dependent thermal stabilisation call” value was inactive: 0. Take SOD1 (UniProt P00441): the “dose-dependent thermal stabilisation call” value was inactive: 0. With SUDS3 (UniProt Q9H7L9), the “dose-dependent thermal stabilisation call” value is inactive: 0. To STAM (UniProt Q92783) belongs inactive: 0. Consider SSB (UniProt P05455), for which the “dose-dependent thermal stabilisation call” value is inactive: 0.

SNX20 (UniProt Q7Z614): the “dose-dependent thermal stabilisation call” value is inactive: 0.

As to SPG20 (UniProt Q8N0X7), the “dose-dependent thermal stabilisation call” value was inactive: 0.

Turning to SNX14 (UniProt Q9Y5W7), the “dose-dependent thermal stabilisation call” value was inactive: 0.

In the case of SPC25 (UniProt Q9HBM1), the “dose-dependent thermal stabilisation call” value was inactive: 0. For the target SPNS1 (UniProt Q9H2V7), the “dose-dependent thermal stabilisation call” value was inactive: 0. Turning to SLFN11 (UniProt Q7Z7L1), the “dose-dependent thermal stabilisation call” value is inactive: 0. Regarding STX3 (UniProt Q13277), the “dose-dependent thermal stabilisation call” value is inactive: 0.

For TAF3 (UniProt Q5VWG9), the “dose-dependent thermal stabilisation call” value is inactive: 0. For the target SVIP (UniProt Q8NHG7), the “dose-dependent thermal stabilisation call” value is inactive: 0.

As for SPTLC2 (UniProt O15270), the “dose-dependent thermal stabilisation call” value was inactive: 0. As to SPAG7 (UniProt O75391), the “dose-dependent thermal stabilisation call” value is inactive: 0. With SMPD2 (UniProt O60906), the “dose-dependent thermal stabilisation call” value was inactive: 0.

For STK19 (UniProt P49842), the “dose-dependent thermal stabilisation call” value was inactive: 0. Regarding STX4 (UniProt Q12846), the “dose-dependent thermal stabilisation call” value is inactive: 0. Turning to SUMF2 (UniProt Q8NBJ7), the “dose-dependent thermal stabilisation call” value was inactive: 0. For STX8 (UniProt Q9UNK0), the “dose-dependent thermal stabilisation call” value is inactive: 0.

On to STAMBPL1 (UniProt Q96FJ0), for which the “dose-dependent thermal stabilisation call” value was inactive: 0. Turning to ST8SIA4 (UniProt Q92187), the “dose-dependent thermal stabilisation call” value is inactive: 0.

(Values after the supplement of paper PMC7666118.)
